Data: paper PMC3146701
Results are given in words; binding and its absence hold for the method and conditions named. In cells and extracts the contact can be indirect. Some binding calls cover weakened binding; strength is not graded here.

Experiments:
[1] = target: T1, Frizzled-4 (Fz-4) (mouse (endogenous in Tep1)) (UniProt Q61088); experiment: co-IP; Tep1 cells treated with control or Wnt-4 supernatants; cell lysates immunoprecipitated with anti-Fz-4 or anti-Fz-6 antibodies and protein G resin in the presence of protease and phosphatase inhibitors; blots probed for PKCδ and Dvl
T1 sequence: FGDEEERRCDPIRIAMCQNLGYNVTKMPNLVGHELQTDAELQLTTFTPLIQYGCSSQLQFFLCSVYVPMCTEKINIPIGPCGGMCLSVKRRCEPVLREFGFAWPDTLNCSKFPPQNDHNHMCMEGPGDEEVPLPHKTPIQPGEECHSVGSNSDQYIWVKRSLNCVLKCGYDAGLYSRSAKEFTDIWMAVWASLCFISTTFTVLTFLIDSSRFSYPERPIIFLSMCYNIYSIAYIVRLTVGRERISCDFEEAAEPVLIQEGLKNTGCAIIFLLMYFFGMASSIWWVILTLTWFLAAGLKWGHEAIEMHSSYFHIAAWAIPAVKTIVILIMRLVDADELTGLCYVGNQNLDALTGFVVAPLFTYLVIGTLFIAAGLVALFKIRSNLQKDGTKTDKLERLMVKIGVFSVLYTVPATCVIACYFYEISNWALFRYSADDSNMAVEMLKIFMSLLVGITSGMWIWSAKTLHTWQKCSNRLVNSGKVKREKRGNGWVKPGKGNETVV

[2] = target: T2, Frizzled-6 (Fz-6) (mouse (endogenous in Tep1)) (UniProt Q61089); experiment: as above
T2 sequence: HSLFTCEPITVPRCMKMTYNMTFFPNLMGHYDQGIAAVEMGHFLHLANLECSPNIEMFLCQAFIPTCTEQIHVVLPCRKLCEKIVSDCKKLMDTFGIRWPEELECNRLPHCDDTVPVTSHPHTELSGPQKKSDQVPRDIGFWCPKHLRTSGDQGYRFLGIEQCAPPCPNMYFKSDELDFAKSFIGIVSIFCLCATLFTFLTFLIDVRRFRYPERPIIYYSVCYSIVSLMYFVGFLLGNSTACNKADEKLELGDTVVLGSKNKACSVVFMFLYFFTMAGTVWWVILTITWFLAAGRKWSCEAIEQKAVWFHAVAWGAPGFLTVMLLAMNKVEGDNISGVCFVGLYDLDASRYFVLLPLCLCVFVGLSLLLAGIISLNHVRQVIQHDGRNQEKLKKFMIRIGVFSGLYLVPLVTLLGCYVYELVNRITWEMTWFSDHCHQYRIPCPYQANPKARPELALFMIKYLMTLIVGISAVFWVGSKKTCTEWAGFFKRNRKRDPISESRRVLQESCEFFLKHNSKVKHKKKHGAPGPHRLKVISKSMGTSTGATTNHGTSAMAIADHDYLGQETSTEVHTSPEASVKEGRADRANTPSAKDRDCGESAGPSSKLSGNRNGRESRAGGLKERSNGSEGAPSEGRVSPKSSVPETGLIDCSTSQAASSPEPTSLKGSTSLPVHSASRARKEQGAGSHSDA

binding [1]: binds
binding [2]: binds
Substance: protein kinase C delta (PKCδ) (from UniProt P28867-1 1-674) (enzyme)
